Reference: paper PMC4737149, “The autoinhibitory CARD2-Hel2i Interface of RIG-I governs RNA selection”

Columns and labels:
[1] = biological target: T1, RIG-I full length (wt) (human) (UniProt O95786); experiment: ATPase titration (Kd,app); details: ATP, 37 C, 150 mM NaCl stated for some supplementary assays, anisotropy at 15 C with 1-2 nM (blunt) or 40 nM (non-blunt) labelled RNA, recombinant protein, residues 1-925, protein details: N-terminal SUMO fusion construct, His (Ni-NTA)
T1 sequence (looked up): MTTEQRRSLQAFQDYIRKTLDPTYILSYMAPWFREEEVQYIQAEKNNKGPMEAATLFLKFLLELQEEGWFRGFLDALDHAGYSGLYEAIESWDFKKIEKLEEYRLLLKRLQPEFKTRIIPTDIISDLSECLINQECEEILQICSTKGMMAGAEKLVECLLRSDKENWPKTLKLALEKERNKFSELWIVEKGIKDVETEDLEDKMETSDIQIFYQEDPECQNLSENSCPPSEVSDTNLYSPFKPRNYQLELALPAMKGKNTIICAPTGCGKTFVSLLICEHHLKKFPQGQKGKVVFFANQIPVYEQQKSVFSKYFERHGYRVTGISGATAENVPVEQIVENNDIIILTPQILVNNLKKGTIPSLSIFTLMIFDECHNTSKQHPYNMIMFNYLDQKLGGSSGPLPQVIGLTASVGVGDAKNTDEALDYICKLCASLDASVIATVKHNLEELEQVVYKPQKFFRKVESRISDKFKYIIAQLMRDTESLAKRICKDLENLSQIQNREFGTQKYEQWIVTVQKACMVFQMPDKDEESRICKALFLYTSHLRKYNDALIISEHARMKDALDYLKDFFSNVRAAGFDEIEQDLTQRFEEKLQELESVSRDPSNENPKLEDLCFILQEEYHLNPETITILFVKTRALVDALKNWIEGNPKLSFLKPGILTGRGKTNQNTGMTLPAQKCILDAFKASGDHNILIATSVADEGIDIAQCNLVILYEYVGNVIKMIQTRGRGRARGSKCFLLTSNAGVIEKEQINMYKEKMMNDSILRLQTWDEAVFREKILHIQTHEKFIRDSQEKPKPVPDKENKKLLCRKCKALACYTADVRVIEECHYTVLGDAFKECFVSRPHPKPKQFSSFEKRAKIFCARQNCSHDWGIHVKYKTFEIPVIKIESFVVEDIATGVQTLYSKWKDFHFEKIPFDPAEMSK

[2] = biological target: T1, RIG-I full length (wt) (human); experiment: fluorescence anisotropy; details: no ATP, 15 C, Kd within 3-478 nM, 150 mM NaCl stated for some supplementary assays, anisotropy at 15 C with 1-2 nM (blunt) or 40 nM (non-blunt) labelled RNA, recombinant protein, residues 1-925, protein details: N-terminal SUMO fusion construct, His (Ni-NTA)
[3] = biological target: T2, RIG-I C-terminal repressor domain (RD) (human) (UniProt O95786); experiment: fluorescence anisotropy; details: 15 C, 150 mM NaCl stated for some supplementary assays, anisotropy at 15 C with 1-2 nM (blunt) or 40 nM (non-blunt) labelled RNA, recombinant protein, residues 801-925, protein details: N-terminal SUMO fusion construct, His (Ni-NTA)
T2 sequence (looked up): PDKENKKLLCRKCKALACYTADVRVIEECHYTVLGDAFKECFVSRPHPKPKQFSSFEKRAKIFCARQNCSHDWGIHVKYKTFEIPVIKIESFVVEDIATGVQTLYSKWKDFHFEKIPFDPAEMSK

Sequence: CGUGAGACAU [5'OH ss10 RNA]
- binding result [1]: no binding

Sequence: CGUGAGACAU / GUCUCACGUA [5'OH 3'ovg RNA]
- binding result ([2]; label: fluorescein on strand 2 in fluorescence assays): binds
- binding result ([3]; tighter than 5'ovg, label: fluorescein on strand 2 in fluorescence assays): binds

Sequence: CGUGAGACAU / UCAUGUCUCA [5'ppp 5'ovg RNA]
- binding result ([2]; 5'-triphosphate on strand 1, label: 5' fluorescein on strand 2 in fluorescence assays): binds
- binding result ([3]; weaker than 3'ovg, 5'-triphosphate on strand 1, label: 5' fluorescein on strand 2 in fluorescence …): binds

Sequence: CGUGAGACAU [5'ppp ss10 RNA]
- binding result ([1]; 5'-triphosphate): no binding

Sequence: CGUGAGACAU / UCAUGUCUCA [5'OH 5'ovg RNA]
- binding result ([3]; weaker than 3'ovg and than 5'ppp, label: 5' fluorescein on strand 2 in fluorescence …): binds more weakly

For some of these results: A negative result means that nothing was seen under these conditions. Tags and fusion partners may be left off the protein sequences shown. For some of these results: The exact form of at least one protein or probe is not confirmed. For some of these results: A weaker result is weaker than the reference pair of the same experiment. For some of these results: At least one verdict was read from the data and is not stated in words by the source.
